The values below come from publication PMC3460915.

For some of these results: A negative result means that nothing was seen under these conditions. For some of these results: Construct, isoform or probe ends are uncertain for at least one entry. For some of these results: Weaker means in comparison with the reference protein, sequence or condition of that experiment. For some of these results: Where a protein sequence is shown, tags need not be part of it.

Series [1] deals with Streptavidin (SA beads) (UniProt P22629). Put plainly: SA-bead flow cytometry (allosteric beacon). The following applies: no AGR2; 1x PBS (137 mM NaCl, 2.7 mM KCl, 10 mM Na2HPO4, 2.0 mM KH2PO4), pH 7.4, 37 C, 45 min, 200 uL; K+ varied in Fig 4; commercial protein; label: 3' FAM; folded or branched DNA. In general terms: Flow cytometry measures light scatter and fluorescence of single cells or particles in a stream.

Series [2] addresses BSA (UniProt P02769). Put plainly: SA-bead flow cytometry (allosteric beacon). The following applies: 500 nM, SA beads; 1x PBS (137 mM NaCl, 2.7 mM KCl, 10 mM Na2HPO4, 2.0 mM KH2PO4), pH 7.4, 37 C, 45 min, 200 uL; K+ varied in Fig 4; commercial protein; label: 3' FAM; folded or branched DNA.
In series [3] the test system is Trypsin. Put plainly: SA-bead flow cytometry (allosteric beacon). The following applies: 500 nM, SA beads; 1x PBS (137 mM NaCl, 2.7 mM KCl, 10 mM Na2HPO4, 2.0 mM KH2PO4), pH 7.4, 37 C, 45 min, 200 uL; K+ varied in Fig 4; commercial protein; label: 3' FAM; folded or branched DNA.
The target in series [4] is T1, GST-AGR2 (on GSH-Sepharose beads) (UniProt O95994).
T1 sequence (looked up, limits assumed): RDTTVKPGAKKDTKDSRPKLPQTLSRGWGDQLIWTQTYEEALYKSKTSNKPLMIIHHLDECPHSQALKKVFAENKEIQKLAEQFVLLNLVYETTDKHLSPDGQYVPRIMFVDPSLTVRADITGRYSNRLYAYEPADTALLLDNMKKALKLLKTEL
Put plainly: flow cytometry bead binding. The conditions noted are these: no K+; 1x PBS (137 mM NaCl, 2.7 mM KCl, 10 mM Na2HPO4, 2.0 mM KH2PO4), pH 7.4, 37 C, 45 min, 200 uL; K+ varied in Fig 4; recombinant protein; label: 3' FAM; folded or branched DNA.

Series [5] deals with Thrombin. Briefly: flow cytometry bead binding. The following applies: NHS-Sepharose coupled, 'no or little'; 1x PBS (137 mM NaCl, 2.7 mM KCl, 10 mM Na2HPO4, 2.0 mM KH2PO4), pH 7.4, 37 C, 45 min, 200 uL; K+ varied in Fig 4; commercial protein; label: 3' FAM; folded or branched DNA.
The target in series [6] is BSA (UniProt P02769). Put plainly: flow cytometry bead binding. The conditions noted are these: NHS-Sepharose coupled, 'no or little'; 1x PBS (137 mM NaCl, 2.7 mM KCl, 10 mM Na2HPO4, 2.0 mM KH2PO4), pH 7.4, 37 C, 45 min, 200 uL; K+ varied in Fig 4; commercial protein; label: 3' FAM; folded or branched DNA.
In series [7] the test system is Trypsin. Put plainly: flow cytometry bead binding. The following applies: NHS-Sepharose coupled, 'no or little'; 1x PBS (137 mM NaCl, 2.7 mM KCl, 10 mM Na2HPO4, 2.0 mM KH2PO4), pH 7.4, 37 C, 45 min, 200 uL; K+ varied in Fig 4; commercial protein; label: 3' FAM; folded or branched DNA.

For the sequence “CGACGCACCGATCGCAGGTTCGGGATTTTCGGGTGGGAGTTGTGGGGGGGGGTGGGAGGGTT [AGR2-aMB]”, the binding result in series [1], in series [2] and in series [3] was “no binding” in each case.

As for “CGGGTGGGAGTTGTGGGGGGGGGTGGGAGGGTT [C14B1]”, the binding result in series [4] is listed as “binds more weakly”; in series [5], “no binding”; in series [6], “no binding”; in series [7], “no binding”.
